Source: paper PMC7758050
These are yes or no findings as the source states them, for the method shown. Binding seen in cells or lysates may run through a third protein. Some results given as binding are weak or reduced against the parent protein; the word gives no strength. For some assays here: Tags and fused reporters may be left off the sequences shown.

The chains behind the UniProt entries cited, without tags or fusion partners.
UniProt Q9UM11: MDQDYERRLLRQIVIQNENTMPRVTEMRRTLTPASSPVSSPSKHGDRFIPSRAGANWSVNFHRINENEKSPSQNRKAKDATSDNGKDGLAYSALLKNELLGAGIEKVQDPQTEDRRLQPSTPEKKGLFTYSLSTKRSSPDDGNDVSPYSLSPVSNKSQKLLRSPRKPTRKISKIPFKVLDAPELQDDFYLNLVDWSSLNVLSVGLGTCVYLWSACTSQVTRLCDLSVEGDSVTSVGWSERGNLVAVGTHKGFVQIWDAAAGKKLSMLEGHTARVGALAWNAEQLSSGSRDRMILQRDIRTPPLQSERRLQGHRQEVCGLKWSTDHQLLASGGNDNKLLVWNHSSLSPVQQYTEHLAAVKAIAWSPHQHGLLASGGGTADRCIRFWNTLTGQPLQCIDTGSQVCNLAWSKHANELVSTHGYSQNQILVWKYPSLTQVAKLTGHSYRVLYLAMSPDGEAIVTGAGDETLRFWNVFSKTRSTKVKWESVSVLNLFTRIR

Experiments:
[1] = target: Endogenous Cdh1 (human (endogenous in HeLa S3)) (UniProt Q9UM11); test: co-IP; endogenous proteins; HeLa S3 synchronized by nocodazole block, collected 0 h and 1 h after release; phosphate lysis buffer; α-Cdh1 (clone DCS-266) or control mouse IgG overnight at 4°C, Protein G magnetic beads; immunoblot
HA-Cdh1 = HA-Cdh1 (UniProt Q9UM11); test: co-IP; transiently transfected HEK-293T treated with proteasome inhibitor (MG-132) before harvest; NETN lysis; IP 2-4 h at 4°C with M2- or Myc-antibody beads (α-HA IP in Fig 4D); washes in NETN with additional 1% Triton X-100; immunoblot

B1: Endogenous UHRF1 (ubiquitin-like with PHD and RING finger domains 1) (protein, UniProt Q96T88 1-793)
chain: MWIQVRTMDGRQTHTVDSLSRLTKVEELRRKIQELFHVEPGLQRLFYRGKQMEDGHTLFDYEVRLNDTIQLLVRQSLVLPHSTKERDSELSDTDSGCCLGQSESDKSSTHGEAAAETDSRPADEDMWDETELGLYKVNEYVDARDTNMGAWFEAQVVRVTRKAPSRDEPCSSTSRPALEEDVIYHVKYDDYPENGVVQMNSRDVRARARTIIKWQDLEVGQVVMLNYNPDNPKERGFWYDAEISRKRETRTARELYANVVLGDDSLNDCRIIFVDEVFKIERPGEGSPMVDNPMRRKSGPSCKHCKDDVNRLCRVCACHLCGGRQDPDKQLMCDECDMAFHIYCLDPPLSSVPSEDEWYCPECRNDASEVVLAGERLRESKKKAKMASATSSSQRDWGKGMACVGRTKECTIVPSNHYGPIPGIPVGTMWRFRVQVSESGVHRPHVAGIHGRSNDGAYSLVLAGGYEDDVDHGNFFTYTGSGGRDLSGNKRTAEQSCDQKLTNTNRALALNCFAPINDQEGAEAKDWRSGKPVRVVRNVKGGKNSKYAPAEGNRYDGIYKVVKYWPEKGKSGFLVWRYLLRRDDDEPGPWTKEGKDRIKKLGLTMQYPEGYLEALANREREKENSKREEEEQQEGGFASPRTGKGKWKRKSAGGGPSRAGSPRRTSKKTKVEPYSLTAQQSSLIREDKSNAKLWNEVLASLKDRPASGSPFQLFLSKVEETFQCICCQELVFRPITTVCQHNVCKDCLDRSFRAQVFSCPACRYDLGRSYAMQVNQPLQTVLNQLFPGYGNGR
binding [1]: binds

B2: Myc-UHRF1^WT (protein, UniProt Q96T88 1-793)
chain: B1 chain
binding (HA-Cdh1): binds
